Data on one sequence can be found in publication PMC8347620, “Arabidopsis G-Protein β Subunit AGB1 Negatively Regulates DNA Binding of MYB62, a Suppressor in the Gibberellin Pathway”.

The data set has as its target T1, MBP-MYB62 (UniProt Q9C9G7).
T1 sequence (looked up, limits assumed): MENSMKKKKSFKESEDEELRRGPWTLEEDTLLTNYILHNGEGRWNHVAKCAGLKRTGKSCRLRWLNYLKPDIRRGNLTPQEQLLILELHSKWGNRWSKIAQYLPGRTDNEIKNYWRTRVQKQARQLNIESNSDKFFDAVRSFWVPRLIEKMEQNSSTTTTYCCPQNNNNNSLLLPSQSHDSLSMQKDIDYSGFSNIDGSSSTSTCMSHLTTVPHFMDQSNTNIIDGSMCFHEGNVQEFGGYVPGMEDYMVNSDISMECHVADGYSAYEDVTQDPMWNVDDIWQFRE
Kind of data set: EMSA. To be noted: GST-AGB1 added (reduces MYB62 binding); EMSA: 2.5% glycerol, 50 mM KCl, 5 mM MgCl2, 10 mM EDTA, 30 min, room temperature; pH not stated; recombinant protein; protein details: MBP (pMAL-c2x).

For at least one entry, the source does not settle the construct or the ends of the probe. A weaker result is weaker than the reference pair of the same experiment. Protein sequences can lack the tags named with them.

On to “AAGCCCTTGGTTGGGGATGG (double strand) [ProGA2ox7 probe (MYB element)]”, for which the binding result is listed as “binds more weakly”.
